Reference: patent US20150299250A1, “MACROCYCLIC COMPOUNDS AND USES THEREOF” (ADELAIDE RESEARCH & INNOVATION PTY LTD, priority 2012, published 2015)
Some entries share one result that the patent states for a list of compounds.

Target: T1, 20S proteasome chymotrypsin-like (CT-L) activity (Oryctolagus cuniculus, UniProt G1T4Q9)
T1 sequence (G1T4Q9 1-263): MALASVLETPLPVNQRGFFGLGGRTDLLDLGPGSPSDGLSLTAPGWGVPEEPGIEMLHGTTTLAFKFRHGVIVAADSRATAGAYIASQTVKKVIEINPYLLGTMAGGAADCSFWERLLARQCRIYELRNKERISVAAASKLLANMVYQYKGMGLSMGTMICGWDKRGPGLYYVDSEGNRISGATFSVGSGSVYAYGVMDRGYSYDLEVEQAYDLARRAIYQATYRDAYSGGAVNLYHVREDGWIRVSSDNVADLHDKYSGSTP
Assay: In vitro proteasome activity assay, CT-L (Suc-LLVY-AMC)
Assay type: biochemical, rabbit
Conditions: on average
Method: The assays were performed in vitro using purified 20S proteasome/inhibitor mixtures, with the activity of each subunit of the proteasome assessed upon incubation with its respective target peptide.
Purified rabbit 20S proteasome and fluorogenic CT-L substrate (Suc-LLVY-AMC) were purchased from Boston Biochem (Cambridge, Mass., USA). The T-L and CP-L fluorogenic substrates (Ac-RLR-AMC and Z-nLPnLD-AMC) were purchased from Enzo Life Sciences (Farmingdale, N.Y., USA). The 20S proteasome was diluted to 0.2 μg/μL in 20S proteasome buffer (50 mM HEPES pH 7.6, 150 mM NaCl and 1 mM DDT) and stored at −80° C. Purified 20S proteasome (8 ng) was pre-incubated with the indicated concentrations of inhibitors for 15 minutes and subsequently added to the AMC-labeled substrate peptide (50 μM) in assay buffer (25 mM HEPES, pH 7.5, 0.5 mM EDTA, 0.05% NP-40, and 0.001% SDS (w/v)) at 37° C. for 2 hours.

Question: How did the “less potent against CT-L than acyclic counterparts 3 and 4” value turn out when `CC(C)CC1NC(=O)C(NC(=O)OCc2ccccc2)CCCCn2cc(nn2)COc2ccc(cc2)CC(C=O)NC1=O` (stereo not shown) [Compound 4a] was run?
Answer: over 10 fold
